{"source": "PubChem BioAssay AID1259307 | Sanger Institute, 2017", "screen": "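Screen of kinase gene silencing for colorectal cancer cell killing and drug cooperation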 (primary screen)", "cells": "SW620 colorectal cancer cells", "reagents": "siRNA pool against human genes", "challenge": "anchor drugs BYL719 at 1 µM, cetuximab at 5 µg/ml or trametinib at 10 nM, each beside a DMSO vehicle arm", "detection": "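Per-well viability versus non-targeting control pool, replicate-averaged, robust z-score from controls; synergy scores for BYL719 1 µM, cetuximab 5 µg/ml, trametinib 10 nM against DMSO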", "direction": "viability robust z-score, no drug: higher = more viable cells", "rule for the call": "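Essential when the viability robust z-score without drug is under -3; synergy scores are ignored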", "calls": "active = essential (lethal alone); inactive = no change alone", "note": "The deposit covers 794 reagents; shown is a part drawn at random. Over the whole deposit, 15 (1.9%) got an active call. 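Calls reflect lethality without any drug; synergy scores did not enter the calls.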 A number with no mark means an inactive call. Not all columns of the deposit are shown. Not stated in the record: the amount of reagent, the time to read-out."}
{"gene knocked down": "PDIK1L (GeneID 149420)", "viability robust z-score, no drug": 0.736}
{"gene knocked down": "DCLK3 (GeneID 85443)", "viability robust z-score, no drug": 0.736}
{"gene knocked down": "PIK3R1 (GeneID 5295)", "viability robust z-score, no drug": 0.548}
{"gene knocked down": "SRGAP3 (GeneID 9901)", "viability robust z-score, no drug": 0.437}
{"gene knocked down": "RIOK1 (GeneID 83732)", "viability robust z-score, no drug": -0.589}
{"gene knocked down": "ERN2 (GeneID 10595)", "viability robust z-score, no drug": 0.736}
{"gene knocked down": "NEK8 (GeneID 284086)", "viability robust z-score, no drug": -0.975}
{"gene knocked down": "SHPK (GeneID 23729)", "viability robust z-score, no drug": -0.566}
{"gene knocked down": "BCOR (GeneID 54880)", "viability robust z-score, no drug": -0.661}
{"gene knocked down": "MAP2K1 (GeneID 5604)", "viability robust z-score, no drug": -0.0238}
{"gene knocked down": "SPEG (GeneID 10290)", "viability robust z-score, no drug": 0.736}
{"gene knocked down": "ADK (GeneID 132)", "viability robust z-score, no drug": -0.0259}
{"gene knocked down": "RPS6KC1 (GeneID 26750)", "viability robust z-score, no drug": 0.557}
{"gene knocked down": "PRKX (GeneID 5613)", "viability robust z-score, no drug": 0.715}
{"gene knocked down": "AXIN2 (GeneID 8313)", "viability robust z-score, no drug": 0.628}
{"gene knocked down": "MAP3K12 (GeneID 7786)", "viability robust z-score, no drug": -0.248}
{"gene knocked down": "TBCK (GeneID 93627)", "viability robust z-score, no drug": 0.17}
{"gene knocked down": "PFKFB3 (GeneID 5209)", "viability robust z-score, no drug": 0.58}
{"gene knocked down": "RPS6KA2 (GeneID 6196)", "viability robust z-score, no drug": -0.621}

Entries listed so far whose target name begins with S or s (3):
{"gene knocked down": "SRGAP3 (GeneID 9901)", "viability robust z-score, no drug": 0.437}
{"gene knocked down": "SHPK (GeneID 23729)", "viability robust z-score, no drug": -0.566}
{"gene knocked down": "SPEG (GeneID 10290)", "viability robust z-score, no drug": 0.736}
